Reference: publication PMC8217545
No constants are given. Whether binding was seen depends on the method and setting. Binding seen in cells or lysates may run through a third protein. Some results given as binding are weak or reduced against the parent protein; the word gives no strength.

Sequences of proteins named here, by UniProt entry; tags and fusion partners are left off.
UniProt O70133: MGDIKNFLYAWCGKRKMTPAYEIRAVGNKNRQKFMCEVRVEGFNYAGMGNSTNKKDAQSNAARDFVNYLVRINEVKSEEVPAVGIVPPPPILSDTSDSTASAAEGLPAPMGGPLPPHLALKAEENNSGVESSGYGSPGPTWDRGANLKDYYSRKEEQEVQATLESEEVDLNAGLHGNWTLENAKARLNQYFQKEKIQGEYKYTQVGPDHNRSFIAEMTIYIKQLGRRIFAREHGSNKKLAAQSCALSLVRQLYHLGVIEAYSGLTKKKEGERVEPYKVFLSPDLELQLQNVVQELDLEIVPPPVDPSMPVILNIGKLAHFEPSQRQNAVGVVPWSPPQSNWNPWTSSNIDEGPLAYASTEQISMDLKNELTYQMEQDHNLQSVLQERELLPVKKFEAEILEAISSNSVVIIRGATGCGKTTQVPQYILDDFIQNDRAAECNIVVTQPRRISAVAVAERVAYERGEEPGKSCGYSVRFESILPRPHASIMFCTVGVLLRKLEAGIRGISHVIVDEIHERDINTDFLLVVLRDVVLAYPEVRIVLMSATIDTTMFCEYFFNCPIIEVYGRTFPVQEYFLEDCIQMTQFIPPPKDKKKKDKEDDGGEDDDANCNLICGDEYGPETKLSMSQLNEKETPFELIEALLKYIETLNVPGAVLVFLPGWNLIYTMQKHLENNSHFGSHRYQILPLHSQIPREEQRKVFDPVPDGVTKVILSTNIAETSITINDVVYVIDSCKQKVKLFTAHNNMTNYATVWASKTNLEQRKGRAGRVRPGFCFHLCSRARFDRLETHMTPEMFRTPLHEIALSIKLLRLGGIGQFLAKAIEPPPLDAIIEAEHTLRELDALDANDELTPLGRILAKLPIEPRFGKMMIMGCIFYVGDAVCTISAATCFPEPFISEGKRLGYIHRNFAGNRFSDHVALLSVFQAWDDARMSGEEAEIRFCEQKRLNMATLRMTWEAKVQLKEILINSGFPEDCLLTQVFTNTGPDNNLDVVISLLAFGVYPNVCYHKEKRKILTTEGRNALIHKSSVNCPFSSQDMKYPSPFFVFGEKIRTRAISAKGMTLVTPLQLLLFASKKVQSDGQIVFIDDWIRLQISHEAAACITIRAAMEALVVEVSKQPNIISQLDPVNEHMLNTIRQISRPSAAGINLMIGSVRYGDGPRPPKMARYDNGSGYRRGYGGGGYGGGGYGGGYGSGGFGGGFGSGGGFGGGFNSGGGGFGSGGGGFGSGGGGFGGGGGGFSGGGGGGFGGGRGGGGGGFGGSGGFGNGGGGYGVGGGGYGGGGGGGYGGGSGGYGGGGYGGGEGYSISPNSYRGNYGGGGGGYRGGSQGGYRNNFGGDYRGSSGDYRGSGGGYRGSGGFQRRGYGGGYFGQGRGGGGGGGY

Biological target: DHX9 helicase (mouse (endogenous in ESC)) (UniProt O70133)
Test: co-IP; anti-DHX9 antibody on ESC lysates in NETN buffer with protease inhibitors, 4 °C overnight, Protein A or G magnetic beads; western blot developed with anti-HA antibody

binding: binds
Substance: HA-tagged DIDO3 (whole DIDO3) (from UniProt Q8C9B9-1 1-2256)
